From the supplement of paper PMC2577665
± gives the standard deviation of the averaged measurements. This is a noisy data set.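 In each well, ERalpha-negative HeLa cells were transfected with ERalpha, a reporter bearing two estrogen response elements, and one overexpressed, poorly characterized human cDNA. Genes reducing signal to the BRCA1 positive control level (roughly 0.6 of empty vector) or below were scored as repressor hits.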

Each substance was assayed on ERE-luciferase reporter with exogenous ERalpha in HeLa cells (assay: relative ERE luciferase activity (Firefly/Renilla) upon cDNA overexpression, relative to empty vector (fold of empty vector); higher = stronger ERalpha transactivation (less repression)). Conditions: 17beta-estradiol: 10 nM; 12 h.

Substance	relative ERE luciferase activity
MKSSDIDQDLFTDSYCKVCSAQLISESQRVAHYESRKHASKVRLYYMLHPRDGGCPAKRLRSENGSDADMVDKNKCCTLCNMSFTSAVVADSHYQGKIHAKRLKLLLGEKTPLKTTATPLSPLKPPRMDTAPVVASPYQRRDSDRYCGLCAAWFNNPLMAQQHYDGKKHKKNAARVALLEQLGTTLDMGELRGLRRNYRCTICSVSLNSIEQYHAHLKGSKHQTNLKNK [ZMAT4]	1.02 ± 0.12
MEKLYSENEGMASNQGKMENEEQPQDERKPEVTCTLEDKKLENEGKTENKGKTGDEEMLKDKGKPESEGEAKEGKSEREGESEMEGGSEREGKPEIEGKPESEGEPGSETRAAGKRPAEDDVPRKAKRKTNKGLAHYLKEYKEAIHDMNFSNEDMIREFDNMAKVQDEKRKSKQKLGAFLWMQRNLQDPFYPRGPREFRGGCRAPRRDIEDIPYV [TCEAL4]	1.16
ZNF720	1.06
MPGISARGLSHEGRKQLAVNLTRVLALYRSILDAYIIEFFTDNLWDTLPCSWQEALDGLKPPQLATMLLGMPGEGEVVRYRSVWPLTLLALKSTACALAFTRMPGFQTPSEFLENPSQSSRLTAPFRKHVRPKKQHEIRRLGELVKKLSDFTGCTQVVDVGSGQGHLSRFMALGLGLMVKSIEGDQRLVERAQRLDQELLQALEKEEKRNPQVVQTSPRHSPHHVVRWVDPTALCEELLLPLENPCQGRARLLLTGLHACGDLSVALLRHFSCCPEVVALASVGCCYMKLSDPGGYPLSQWVAGLPGYELPYRLREGACHALEEYAERLQKAGPGLRTHCYRAALETVIRRARPELRRPGVQGIPRVHELKIEEYVQRGLQRVGLDPQLPLNLAALQAHVAQENRVVAFFSLALLLAPLVETLILLDRLLYLQEQGFHAELLPIFSPELSPRNLVLVATKMPLGQALSVLETEDS [C1orf66]	1.03
MLSLDFLDDVRRMNKRQLYYQVLNFGMIVSSALMIWKGLMVITGSESPIVVVLSGSMEPAFHRGDLLFLTNRVEDPIRVGEIVVFRIEGREIPIVHRVLKIHEKQNGHIKFLTKGDNNAVDDRGLYKQGQHWLEKKDVVGRARGFVPYIGIVTILMNDYPKFKYAVLFLLGLFVLVHRE [SEC11A]	1.12
MAGAAPTTAFGQAVIGPPGSGKTTYCLGMSEFLRALGRRVAVVNLDPANEGLPYECAVDVGELVGLGDVMDALRLGPNGGLLYCMEYLEANLDWLRAKLDPLRGHYFLFDCPGQVELCTHHGALRSIFSQMAQWDLRLTAVHLVDSHYCTDPAKFISVLCTSLATMLHVELPHINLLSKMDLIEHYGKLAFNLDYYTEVLDLSYLLDHLASDPFFRHYRQLNEKLVQLIEDYSLVSFIPLNIQDKESIQRVLQAVDKANGYCFRAQEQRSLEAMMSAAMGADFHFSSTLGIQEKYLAPSNQSVEQEAMQL [ATPBD1B]	0.834
MALLFARSLRLCRWGAKRLGVASTEAQRGVSFKLEEKTAHSSLALFRDDTGVKYGLVGLEPTKVALNVERFREWAVVLADTAVTSGRHYWEVTVKRSQQFRIGVADVDMSRDSCIGVDDRSWVFTYAQRKWYTMLANEKAPVEGIGQPEKVGLLLEYEAQKLSLVDVSQVSVVHTLQTDFRGPVVPAFALWDGELLTHSGLEVPEGL [SPRYD4]	1.22
MGNRVCCGGSWSCPSTFQKKKKTGSQTRRTLKPQPQQLQQNLPKGHETTGHTYERVLQQQGSQERSPGLMSEDSNLHYADIQVCSRPHAREVKHVHLENATEYATLRFPQATPRYDSKNGTLV [C11orf52]	0.818
MDDPKSEQQRILRRHQRERQELQAQIRSLKNSVPKTDKTKRKQLLQDVARMEAEMAQKHRQELEKFQDDSSIESVVEDLAKMNLENRPPRSSKAHRKRERMESEERERQESIFQAEMSEHLAGFKREEEEKLAAILGARGLEMKAIPADGHCMYRAIQDQLVFSVSVEMLRCRTASYMKKHVDEFLPFFSNPETSDSFGYDDFMIYCDNIVRTTAWGGQLELRALSHVLKTPIEVIQADSPTLIIGEEYVKKPIILVYLRYAYSLGEHYNSVTPLEAGAAGGVLPRLL [OTUD6A]	2.63
MELKQSLSTHLEAEKPLRRYGAVEETAWKTERLGRNQLDIISMAETTMMPEEIELEMAKIQRLREVLVRRESELRFMMDDIQLCKDIMDLKQELQNLVAIPEKEKTKLQKQREDELIQKIHKLVQKRDFLVDDAEVERLREQEEDKEMADFLRIKLKPLDKVTKSPASSRAEKKAEPPPSKPTVAKTGLALIKDCCGATQCNIM [C16orf45]	1.05
MKHTQSGQSTSPLVIDYTCRVCQMAFVFSSLIPLLLMTPVFCLGNTSECFQNFSQSHKCILMHSPPSAMAELPPSANTSVCSTLYFYGIAIFLGSFVLSLLTIMVLLIRAQTLYKKFVKSTGFLGSEQWAVIHIVDQRVRFYPVAFFCCWGPAVILMIIKLTKPQDTKLHMALYVLQALTATSQGLLNCGVYGWTQHKFHQLKQEARRDADTQTPLLCSQKRFYSRGLNSLESTLTFPASTSTIF [TMEM116]	1.17 ± 0.14
ZNF641	2.39
MMRREDEEEEGTMMKAKGDLEMKEEEEISETGELVGPFVSAMPTPMPHNKGTRFSEAWEYFHLAPARAGHHPNQYATCRLCGRQVSRGPGVNVGTTALWKHLKSMHREELEKSGHGQAGQRQDPRPHGPQLPTGIEGNWGRLLEQVGTMALWASQREKEVLRRERAVEWRERAVEKRERALEEVERAILEMKWKVRAEKEACQREKELPAAVHPFHFV [ZBED2]	1.22
MRAVLAREMDGRRVLGRFWSGWRRGLGVRPVPEDAGFGTEARHQRQPRGSCQRSGPLGDQPFAGLLPKNLSREELVDALRAAVVDRKGPLVTLNKPQGLPVTGKPGELTLFSVLPELSQSLGLREQELQVVRASGKESSGLVLLSSCPQTASRLQKYFTHARRAQRPTATYCAVTDGIPAASEGKIQAALKLEHIDGVNLTVPVKAPSRKDILEGVKKTLSHFRVVATGSGCALVQLQPLTVFSSQLQVHMVLQLCPVLGDHMYSARVGTVLGQRFLLPAENNKPQRQVLDEALLRRLHLTPSQAAQLPLHLHLHRLLLPGTRARDTPVELLAPLPPYFSRTLQCLGLRLQ [RPUSD3]	1.25
MAQAKINAKANEGRFCRSSSMADRSSRLLESLDQLELRVEALREAATAVEQEKEILLEMIHSIQNSQDMRQISDGEREELNLTANRLMGRTLTVEVSVETIRNPQQQESLKHATRIIDEVVNKFLDDLGNAKSHLMSLYSACSSEVPHGPVDQKFQSIVIGCALEDQKKIKRRLETLLRNIENSDKAIKLLEHSKGAGSKTLQQNAESRFN [BAG2]	1.03 ± 0.23
MPKYCRAPNCSNTAGRLGADNRPVSFYKFPLKDGPRLQAWLQHMGCEHWVPSCHQHLCSEHFTPSCFQWRWGVRYLRPDAVPSIFSRGPPAKSQRRTRSTQKPVSPPPPLQKNTPLPQSPAIPVSGPVRLVVLGPTSGSPKTVATMLLTPLAPAPTPERSQPEVPAQQAQTGLGPVLGALQRRVRRLQRCQERHQAQLQALERLAQQLHGESLLARARRGLQRLTTAQTLGPEESQTFTIICGGPDIAMVLAQDPAPATVDAKPELLDTRIPSA [THAP8]	1.06
MDLSFMAAQLPMMGGAFMDSPNEDFSTEYSLFNSSANVHAAANGQGQPEDPPRSSNDAVLLWIAIIATLGNIVVVGVVYAFTF [C14orf132]	0.93 ± 0.33
MSTAALITLVRSGGNQVRRRVLLSSRLLQDDRRVTPTCHSSTSEPRCSRFDPDGSGSPATWDNFGIWDNRIDEPILLPPSIKYGKPIPKISLENVGCASQIGKRKENEDRFDFAQLTDEVLYFAVYDGHGGPAAADFCHTHMEKCIMDLLPKEKNLETLLTLAFLEIDKAFSSHARLSADATLLTSGTTATVALLRDGIELVVASVGDSRAILCRKGKPMKLTIDHTPERKDEKERIKKCGGFVAWNSLGQPHVNGRLAMTRSIGDLDLKTSGVIAEPETKRIKLHHADDSFLVLTTDGINFMVNSQEICDFVNQCHDPNEAAHAVTEQAIQYGTEDNSTAVVVPFGAWGKYKNSEINFSFSRSFASSGRWA [PPM1K]	1.02
MRLIQNMCTIAEYPAPGNAAASDCCVGAAGRRLVKIAVVGASGVGKTALVVRFLTKRFIGDYERNAGNLYTRQVQIEGETLALQVQDTPGIQVHENSLSCSEQLNRCIRWADAVVIVFSITDYKSYELISQLHQHVQQLHLGTRLPVVVVANKADLLHIKQVDPQLGLQLASMLGCSFYEVSVSENYNDVYSAFHVLCKEVSHKQQPSSTPEKRRTSLIPRPKSPNMQDLKRRFKQALSAKVRTVTSV [RASL11B]	1.12
MAACRALKAVLVDLSGTLHIEDAAVPGAQEALKRLRGASVIIRFVTNTTKESKQDLLERLRKLEFDISEDEIFTSLTAARSLLERKQVRPMLLVDDRALPDFKGIQTSDPNAVVMGLAPEHFHYQILNQAFRLLLDGAPLIAIHKARYYKRKDGLALGPGPFVTALEYATDTKATVVGKPEKTFFLEALRGTGCEPEEAVMIGDDCRDDVGGAQDVGMLGILVKTGKYRASDEEKINPPPYLTCESFPHAVDHILQHLL [HDHD2]	1.06
METFDPTELPELLKLYYRRLFPYSQYYRWLNYGGVIKNYFQHREFSFTLKDDIYIRYQSFNNQSDLEKEMQKMNPYKIDIGAVYSHRPNQHNTVKLGAFQAQEKELVFDIDMTDYDDVRRCCSSADICPKCWTLMTMAIRIIDRALKEDFGFKHRLWVYSGRRGVHCWVCDESVRKLSSAVRSGIVEYLSLVKGGQDVKKKVHLSEKIHPFIRKSINIIKKYFEEYALVNQDILENKESWDKILALVPETIHDELQQSFQKSHNSLQRWEHLKKVASRYQNNIKNDKYGPWLEWEIMLQYCFPRLDINVSKGINHLLKSPFSVHPKTGRISVPIDLQKVDQFDPFTVPTISFICRELDAISTNEEEKEENEAESDVKHRTRDYKKTSLAPYVKVFEHFLENLDKSRKGELLKKSDLQKDF [PRIM1]	1.01
MNEKSCSFHSKEELRDGQGERLSAGYSPSYDKDKSVLAFRGIPISELKNHGILQALTTEAYEWEPRVVSTEVVRAQEEWEAVDTIQPETGSQASSEQPGQLISFSEALQHFQTVDLSPFKKRIQPTIRRTGLAALRHYLFGPPKLHQRLREERDLVLTIAQCGLDSQDPVHGRVLQTIYKKLTGSKFDCALHGNHWEDLGFQGANPATDLRGAGFLALLHLLYLVMDSKTLPMAQEIFRLSRHHIQQFPFCLMSVNITHIAIQALREECLSRECNRQQKVIPVVNSFYAATFLHLAHVWRTQRKTISDSGFVLKELEVLAKKSPRRLLKTLELYLARVSKGQASLLGAQKCYGPEAPPFKDLTFTGESDLQSHSSEGVWLI [RBED1]	1.07 ± 0.044
MKPLVLLVALLLWPSSVPAYPSITVTPDEEQNLNHYIQVLENLVRSVPSGEPGREKKSNSPKHVYSIASKGSKFKELVTHGDASTENDVLTNPISEETTTFPTGGFTPEIGKKKHTESTPFWSIKPNNVSIVLHAEEPYIENEEPEPEPEPAAKQTEAPRMLPVVTESSTSPYVTSYKSPVTTLDKSTGIGISTESEDVPQLSGETAIEKPEEFGKHPESWNNDDILKKILDINSQVQQALLSDTSNPAYREDIEASKDHLKRSLALAAAAEHKLKTMYKSQLLPVGRTSNKIDDIETVINMLCNSRSKLYEYLDIKCVPPEMREKAATVFNTLKNMCRSRRVTALLKVY [SPESP1]	1.16
MALAARLLPQFLHSRSLPCGAVRLRTPAVAEVRLPSATLCYFCRCRLGLGAALFPRSARALAASALPAQGSRWPVLSSPGLPAAFASFPACPQRSYSTEEKPQQHQKTKMIVLGFSNPINWVRTRIKAFLIWAYFDKEFSITEFSEGAKQAFAHVSKLLSQCKFDLLEELVAKEVLHALKEKVTSLPDNHKNALAANIDEIVFTSTGDISIYYDEKGRKFVNILMCFWYLTSANIPSETLRGASVFQVKLGNQNVETKQLLSASYEFQREFTQGVKPDWTIARIEHSKLLE [C2orf47]	1.13
